Results as given in article PMC7366654.
No constants are given. Whether binding was seen depends on the method and setting. Binding seen in cells or lysates may run through a third protein. Some binding calls cover weakened binding; strength is not graded here.

What was measured:
[1] = target: EGFR-NT, extracellular domain of epidermal growth factor receptor (human) (UniProt P00533); test: co-IP; whole cell lysates of 293 T cells added to antibody on Protein A magnetic beads, overnight at 4 °C; washes with Triton X-100 buffer (150 mM Tris, 150 mM NaCl, 0.4% NP-40, pH 7.4); immunoblot; which partner was precipitated is not told
[2] = target: epidermal growth factor receptor, EGFR-FL (human) (UniProt P00533); test: as above

binding [1]: binds
binding [2]: binds
B1: WAP four-disulfide core domain 2 (WFDC2) (protein, UniProt Q14508 31-124)
chain: EKTGVCPELQADQNCTQECVSDSECADNLKCCSAGCATFCSLPNDKEGSCPQVNINFPQLGLCRDQCQVDSQCPGQMKCCRNGCGKVSCVTPNF
